Values from PubChem BioAssay AID686938 (Drosophila RNAi Screening Center, 2013).
In all, the deposit lists about 23,000 reagents; this is an unselected part of those that have a named target and a result. Over the whole deposit, 75 (0.33%) got an active call. 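Raw plate signals without normalisation; calls rest on plate z-scores that were not deposited; ratio present for only 364 wells.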 Unmarked entries are inactive. Names joined by + are all predicted targets of the reagent. Not given: the dose of the treatment.

Purpose: 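Looking for CRAC channel components and the factors controlling them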 (primary screen)
Cell system: Drosophila S2R+ cells
Reagent: long dsRNA against Drosophila genes, about 0.25 µg dsRNA per well, roughly 10,000 cells
Time to read-out: 5 days of knock-down before the calcium assay
Conditions: thapsigargin (SERCA pump blocker) to empty calcium stores; entry signal taken 4 min after adding it
Read-out: 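Duplicate raw fluo-4 intensities per well from a plate reader, at rest and four minutes after thapsigargin emptied calcium stores; entry-to-rest ratio filled for only some wells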
Reading the numbers: calcium entry signal: higher = stronger calcium signal after store depletion; entry to resting ratio: higher = more calcium entry relative to resting level; resting calcium signal: higher = higher resting calcium signal
Units: calcium entry signal in fluorescence units; resting calcium signal in fluorescence units
Active means: 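Hit if the duplicate-averaged plate z-score for entry over resting signal is under −3; wells with weak total dye signal (Fmax z < −2) or more than 5 off-targets removed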
Meaning of the calls: active = strongly reduced calcium entry; inactive = no strong reduction

{"Target gene": "CG4907", "dsRNA": "DRSC15673", "calcium entry signal, replicate 1": 4.58e7, "calcium entry signal, replicate 2": 6.51e7, "resting calcium signal, replicate 1": 2.22e7, "resting calcium signal, replicate 2": 2.62e7}
{"Target gene": "Tango2", "dsRNA": "DRSC19394", "calcium entry signal, replicate 1": 3.88e7, "calcium entry signal, replicate 2": 4.57e7, "resting calcium signal, replicate 1": 1.88e7, "resting calcium signal, replicate 2": 2.21e7}
{"Target gene": "Tango2", "dsRNA": "DRSC21526", "calcium entry signal, replicate 1": 4.76e7, "calcium entry signal, replicate 2": 3.17e7, "resting calcium signal, replicate 1": 2.88e7, "resting calcium signal, replicate 2": 1.62e7}
{"Target gene": "ort", "dsRNA": "DRSC16240", "calcium entry signal, replicate 1": 4.45e7, "calcium entry signal, replicate 2": 4.62e7, "resting calcium signal, replicate 1": 4.39e7, "resting calcium signal, replicate 2": 2.03e7}
{"Target gene": "CG13116", "dsRNA": "DRSC02214", "calcium entry signal, replicate 1": 2.85e7, "calcium entry signal, replicate 2": 2.96e7, "resting calcium signal, replicate 1": 1.39e7, "resting calcium signal, replicate 2": 1.45e7}
{"Target gene": "CG13116", "dsRNA": "DRSC21945", "calcium entry signal, replicate 1": 3.50e7, "calcium entry signal, replicate 2": 3.58e7, "resting calcium signal, replicate 1": 2.19e7, "resting calcium signal, replicate 2": 1.76e7}
{"Target gene": "CG17261", "dsRNA": "DRSC00498", "calcium entry signal, replicate 1": 2.56e7, "calcium entry signal, replicate 2": 1.99e7, "resting calcium signal, replicate 1": 1.40e7, "resting calcium signal, replicate 2": 1.14e7}
{"Target gene": "sw + Sdic4 + Sdic3 + 2 more", "dsRNA": "DRSC20696", "calcium entry signal, replicate 1": 4.61e7, "calcium entry signal, replicate 2": 5.18e7, "resting calcium signal, replicate 1": 2.46e7, "resting calcium signal, replicate 2": 2.47e7}
{"Target gene": "ssx", "dsRNA": "DRSC18492", "calcium entry signal, replicate 1": 4.15e7, "calcium entry signal, replicate 2": 4.66e7, "resting calcium signal, replicate 1": 2.06e7, "resting calcium signal, replicate 2": 2.12e7}
{"Target gene": "opm", "dsRNA": "DRSC20141", "calcium entry signal, replicate 1": 3.35e7, "calcium entry signal, replicate 2": 3.93e7, "resting calcium signal, replicate 1": 1.60e7, "resting calcium signal, replicate 2": 1.83e7}
{"Target gene": "opm", "dsRNA": "DRSC22135", "calcium entry signal, replicate 1": 1.56e7, "calcium entry signal, replicate 2": 3.00e7, "resting calcium signal, replicate 1": 9.80e6, "resting calcium signal, replicate 2": 1.67e7}
{"Target gene": "CG4752", "dsRNA": "DRSC04486", "calcium entry signal, replicate 1": 2.34e7, "calcium entry signal, replicate 2": 2.67e7, "resting calcium signal, replicate 1": 1.24e7, "resting calcium signal, replicate 2": 1.23e7}
{"Target gene": "CG30037", "dsRNA": "DRSC07305", "calcium entry signal, replicate 1": 3.59e7, "calcium entry signal, replicate 2": 3.83e7, "resting calcium signal, replicate 1": 1.73e7, "resting calcium signal, replicate 2": 1.68e7}
{"Target gene": "Rrp40", "dsRNA": "DRSC00074", "calcium entry signal, replicate 1": 3.32e7, "calcium entry signal, replicate 2": 3.50e7, "resting calcium signal, replicate 1": 1.93e7, "resting calcium signal, replicate 2": 1.75e7}
{"Target gene": "pHCl-2", "dsRNA": "DRSC14306", "calcium entry signal, replicate 1": 3.45e7, "calcium entry signal, replicate 2": 5.01e7, "resting calcium signal, replicate 1": 1.80e7, "resting calcium signal, replicate 2": 2.19e7}
{"Target gene": "Osi5", "dsRNA": "DRSC12276", "calcium entry signal, replicate 1": 4.87e7, "calcium entry signal, replicate 2": 4.06e7, "resting calcium signal, replicate 1": 2.14e7, "resting calcium signal, replicate 2": 1.74e7}
{"Target gene": "ens", "dsRNA": "DRSC08454", "calcium entry signal, replicate 1": 4.82e7, "calcium entry signal, replicate 2": 3.78e7, "resting calcium signal, replicate 1": 3.25e7, "resting calcium signal, replicate 2": 1.63e7}
{"Target gene": "ATP6 (retired record)", "dsRNA": "DRSC21278", "calcium entry signal, replicate 1": 3.11e7, "calcium entry signal, replicate 2": 4.11e7, "resting calcium signal, replicate 1": 1.91e7, "resting calcium signal, replicate 2": 2.04e7}
{"Target gene": "Dlish", "dsRNA": "DRSC06016", "calcium entry signal, replicate 1": 3.96e7, "calcium entry signal, replicate 2": 5.10e7, "resting calcium signal, replicate 1": 1.83e7, "resting calcium signal, replicate 2": 2.51e7}
{"Target gene": "Cka", "dsRNA": "DRSC03476", "calcium entry signal, replicate 1": 3.76e7, "calcium entry signal, replicate 2": 5.98e7, "resting calcium signal, replicate 1": 1.70e7, "resting calcium signal, replicate 2": 2.50e7}
{"Target gene": "Cka", "dsRNA": "DRSC22858", "calcium entry signal, replicate 1": 1.78e7, "calcium entry signal, replicate 2": 2.86e7, "resting calcium signal, replicate 1": 1.07e7, "resting calcium signal, replicate 2": 1.39e7}
{"Target gene": "CG30429", "dsRNA": "DRSC04040", "calcium entry signal, replicate 1": 3.23e7, "calcium entry signal, replicate 2": 4.45e7, "resting calcium signal, replicate 1": 1.62e7, "resting calcium signal, replicate 2": 2.08e7}
{"Target gene": "CG7907", "dsRNA": "DRSC16339", "calcium entry signal, replicate 1": 3.70e7, "calcium entry signal, replicate 2": 3.68e7, "resting calcium signal, replicate 1": 4.89e7, "resting calcium signal, replicate 2": 1.74e7}
{"Target gene": "CR18275 + CG13373", "dsRNA": "DRSC17900", "calcium entry signal, replicate 1": 2.52e7, "calcium entry signal, replicate 2": 3.48e7, "entry to resting ratio": 1.9, "resting calcium signal, replicate 1": 1.30e7, "resting calcium signal, replicate 2": 1.40e7}
{"Target gene": "CG14662 + asRNA:CR43478", "dsRNA": "DRSC12248", "calcium entry signal, replicate 1": 3.26e7, "calcium entry signal, replicate 2": 5.02e7, "resting calcium signal, replicate 1": 1.63e7, "resting calcium signal, replicate 2": 2.34e7}
{"Target gene": "na", "dsRNA": "DRSC19639", "calcium entry signal, replicate 1": 2.98e7, "calcium entry signal, replicate 2": 3.76e7, "resting calcium signal, replicate 1": 1.55e7, "resting calcium signal, replicate 2": 1.62e7}
{"Target gene": "Gr39a", "dsRNA": "DRSC01841", "calcium entry signal, replicate 1": 1.67e7, "calcium entry signal, replicate 2": 2.77e7, "resting calcium signal, replicate 1": 8.20e6, "resting calcium signal, replicate 2": 2.40e7}
{"Target gene": "Gr39a", "dsRNA": "DRSC01842", "calcium entry signal, replicate 1": 1.73e7, "calcium entry signal, replicate 2": 2.95e7, "resting calcium signal, replicate 1": 7.65e6, "resting calcium signal, replicate 2": 2.47e7}

2 entries from above, reformatted:
ATP6 (retired record) [DRSC21278]
- calcium entry signal, replicate 1: 3.11e7
- calcium entry signal, replicate 2: 4.11e7
- resting calcium signal, replicate 1: 1.91e7
- resting calcium signal, replicate 2: 2.04e7

Dlish [DRSC06016]
- calcium entry signal, replicate 1: 3.96e7
- calcium entry signal, replicate 2: 5.10e7
- resting calcium signal, replicate 1: 1.83e7
- resting calcium signal, replicate 2: 2.51e7
